Consider 2 substances from paper PMC12442639, “A Two‐Protein Chemoreceptor Complex Regulates Oxygen Thresholds in Bacterial Magneto‐Aerotaxis” (Advanced Science, 2025).

This assay deals with CetA2 (two-hybrid fusion protein) (Magnetospirillum gryphiswaldense). Put plainly: two-hybrid; adenylate cyclase-based bacterial two-hybrid assay in E. coli; T18 and T25 fusions; blue colony colour on lactose and X-Gal-containing mineral salts agar; at least three cotransformants per tested interaction.

No constants are given. Whether binding was seen depends on the method and setting. Some results given as binding are weak or reduced against the parent protein; the word gives no strength.

Consider “CetB2 (two-hybrid fusion protein) (from UniProt A0ACM8ULG3 1-174)”, for which the binding result is given as “binds”.

With “CetA2 (two-hybrid fusion protein) (from UniProt A0ACM8UKD1 1-436) (receptor)”, the binding entry is “binds”.
